Values from PubChem BioAssay AID1259254 (NCATS, 2017)
The whole screen tested about 59,000 reagents; below is an unselected part. About 1,550 of them (2.6%) count as active. 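G2 share is only a proxy for re-replication; each gene was hit by three separate siRNAs, and active genes were retested.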 Raw values are not corrected between plates. Reagents against one gene are numbered here. Not stated in the record: the amount of reagent.

- Assay: 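Finding genes that stop cells copying their DNA twice in one cycle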 (primary screen)
- Cells: human HCT116 colorectal cancer cells
- Reagent: single siRNA against human genes
- Duration: 3 days
- Read-out: 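Imaged Hoechst DNA stain sorts each cell into a cycle phase by DNA amount; per plate, G2 fraction set to 0% for non-targeting and 100% for GMNN siRNA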
- Reading the numbers: G2 robust z-score and G2 cells, % of GMNN control: higher = more G2 cells, more excess DNA replication; raw share of cells in G2: higher = larger share of cells with G2 DNA content
- Hit rule: 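Active siRNAs have a G2 robust z of 5 or more median absolute deviations over the median, which in these data means about 38% or higher of GMNN control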

The opening 7 entries, ahead of the listing:
no.	gene symbol	reagent	G2 robust z-score	G2 cells, % of GMNN control	raw share of cells in G2 (%)	call
1	CENPN (centromere protein N)	1	4.99	38.1	19.2	inactive
2	CENPN (centromere protein N)	2	1.48	13.4	9.67	inactive
3	CENPN (centromere protein N)	3	2.54	20.8	9.79	inactive
4	GIMAP5 (GTPase, IMAP family member 5)	1	-0.447	-0.177	4.46	inactive
5	GIMAP5 (GTPase, IMAP family member 5)	2	0.183	4.25	5.9	inactive
6	GIMAP5 (GTPase, IMAP family member 5)	3	-0.304	0.828	3.4	inactive
7	TRIO (trio Rho guanine nucleotide exchange factor)	1	-0.493	-0.504	5.38	inactive

The list itself, from the start:
no.	gene symbol	reagent	G2 robust z-score	G2 cells, % of GMNN control	raw share of cells in G2 (%)	call
1	CENPN (centromere protein N)	1	4.99	38.1	19.2	inactive
2	CENPN (centromere protein N)	2	1.48	13.4	9.67	inactive
3	CENPN (centromere protein N)	3	2.54	20.8	9.79	inactive
4	GIMAP5 (GTPase, IMAP family member 5)	1	-0.447	-0.177	4.46	inactive
5	GIMAP5 (GTPase, IMAP family member 5)	2	0.183	4.25	5.9	inactive
6	GIMAP5 (GTPase, IMAP family member 5)	3	-0.304	0.828	3.4	inactive
7	TRIO (trio Rho guanine nucleotide exchange factor)	1	-0.493	-0.504	5.38	inactive
8	TRIO (trio Rho guanine nucleotide exchange factor)	2	-0.363	0.413	4.61	inactive
9	TRIO (trio Rho guanine nucleotide exchange factor)	3	-0.447	-0.18	4.19	inactive
10	ZNF723 (zinc finger protein 723)	1	3.81	29.8	15	inactive
11	ZNF723 (zinc finger protein 723)	2	0.0177	3.09	4.37	inactive
12	ZNF723 (zinc finger protein 723)	3	0.596	7.16	5.32	inactive
13	SRSF3 (serine and arginine rich splicing factor 3)	1	0.0742	3.49	5.11	inactive
14	SRSF3 (serine and arginine rich splicing factor 3)	2	6.75	50.5	22.7	active
15	SRSF3 (serine and arginine rich splicing factor 3)	3	4.39	33.8	16.1	inactive
16	FAAP24 (FA core complex associated protein 24)	1	-0.107	2.22	5.02	inactive
17	FAAP24 (FA core complex associated protein 24)	2	0.362	5.52	4.73	inactive
18	FAAP24 (FA core complex associated protein 24)	3	0.381	5.65	4.72	inactive
19	FBP1 (fructose-bisphosphatase 1)	1	4.15	32.2	15.3	inactive
20	FBP1 (fructose-bisphosphatase 1)	2	1.38	12.7	8.13	inactive
21	FBP1 (fructose-bisphosphatase 1)	3	-0.868	-3.14	2.55	inactive
22	KCTD10 (potassium channel tetramerization domain containing 10)	1	3.34	26.5	16.5	inactive
23	KCTD10 (potassium channel tetramerization domain containing 10)	2	0.768	8.37	7.89	inactive
24	KCTD10 (potassium channel tetramerization domain containing 10)	3	7.33	54.5	23.9	active
25	RAD51C (RAD51 paralog C)	1	-1.11	-4.88	2.82	inactive
26	RAD51C (RAD51 paralog C)	2	-0.517	-0.667	3.92	inactive
27	RAD51C (RAD51 paralog C)	3	2.35	19.5	11.7	inactive
28	LOC728376 (zinc finger protein 430 pseudogene)	1	-0.973	-3.88	2.13	inactive
29	LOC728376 (zinc finger protein 430 pseudogene)	2	-0.353	0.484	3.73	inactive
30	LOC728376 (zinc finger protein 430 pseudogene)	3	1.4	12.8	7.4	inactive
31	PLP2 (proteolipid protein 2)	1	-0.171	1.76	5.72	inactive
32	PLP2 (proteolipid protein 2)	2	-0.296	0.882	4.57	inactive
33	PLP2 (proteolipid protein 2)	3	-0.38	0.297	3.46	inactive
34	NUTM2E (NUT family member 2E)	1	-0.677	-1.8	2.99	inactive
35	NUTM2E (NUT family member 2E)	2	-0.624	-1.43	2.49	inactive
36	NUTM2E (NUT family member 2E)	3	-0.627	-1.44	2.83	inactive
37	OR13C3 (olfactory receptor family 13 subfamily C member 3)	1	-0.832	-2.89	3.09	inactive
38	OR13C3 (olfactory receptor family 13 subfamily C member 3)	2	2.19	18.4	8.93	inactive
39	OR13C3 (olfactory receptor family 13 subfamily C member 3)	3	-0.11	2.19	3.37	inactive
40	TFE3 (transcription factor binding to IGHM enhancer 3)	1	-1.07	-4.55	2.94	inactive
41	TFE3 (transcription factor binding to IGHM enhancer 3)	2	0.516	6.6	6.34	inactive
42	TFE3 (transcription factor binding to IGHM enhancer 3)	3	-0.0756	2.44	5.82	inactive
43	IL17A (interleukin 17A)	1	5.16	39.3	17.5	active
44	IL17A (interleukin 17A)	2	3.92	30.5	18	inactive
45	IL17A (interleukin 17A)	3	-0.36	0.433	4.39	inactive
46	CLPB (ClpB family mitochondrial disaggregase)	1	-0.0789	2.41	5.07	inactive
47	CLPB (ClpB family mitochondrial disaggregase)	2	1.41	12.9	10.8	inactive
48	CLPB (ClpB family mitochondrial disaggregase)	3	-0.624	-1.42	4.26	inactive
49	OR6K2 (olfactory receptor family 6 subfamily K member 2)	1	-0.863	-3.1	3.16	inactive
50	OR6K2 (olfactory receptor family 6 subfamily K member 2)	2	6.61	49.5	25.9	active
51	OR6K2 (olfactory receptor family 6 subfamily K member 2)	3	1.79	15.6	6.64	inactive
52	RPL22P3 (ribosomal protein L22 pseudogene 3)	1	-0.807	-2.71	3.03	inactive
53	RPL22P3 (ribosomal protein L22 pseudogene 3)	2	-0.701	-1.96	2.56	inactive
54	RPL22P3 (ribosomal protein L22 pseudogene 3)	3	-0.145	1.95	3.89	inactive
55	HEXIM2 (HEXIM P-TEFb complex subunit 2)	1	-0.487	-0.462	3.91	inactive
56	HEXIM2 (HEXIM P-TEFb complex subunit 2)	2	0.225	4.55	4.69	inactive
57	HEXIM2 (HEXIM P-TEFb complex subunit 2)	3	0.368	5.56	3.44	inactive
58	VSNL1 (visinin like 1)	1	-0.668	-1.73	2.77	inactive
59	VSNL1 (visinin like 1)	2	1.08	10.6	9.79	inactive
60	VSNL1 (visinin like 1)	3	1.68	14.8	8.48	inactive
61	ARHGAP5 (Rho GTPase activating protein 5)	1	1.17	11.2	8.16	inactive
62	ARHGAP5 (Rho GTPase activating protein 5)	2	-0.751	-2.32	3.93	inactive
63	ARHGAP5 (Rho GTPase activating protein 5)	3	-1.33	-6.38	2.8	inactive
64	YPEL1 (yippee like 1)	1	-0.944	-3.67	2.09	inactive
65	YPEL1 (yippee like 1)	2	-0.601	-1.26	3.37	inactive
66	YPEL1 (yippee like 1)	3	-0.171	1.76	5.22	inactive
67	KDM5A (lysine demethylase 5A)	1	0.559	6.9	6.2	inactive
68	KDM5A (lysine demethylase 5A)	2	1.71	15	11.9	inactive
69	KDM5A (lysine demethylase 5A)	3	-0.835	-2.91	2.05	inactive
